Measurements as given in patent US10682415B2, “Thermogel formulation for combination drug delivery” (Wisconsin Alumni Research Foundation, priority 2013, dated 2020).
“Also recorded” adds a separate entry of the source. For part of these data: The name of at least one read-out is uncertain. For part of these data: At least one compound was matched to its structure with a doubt left. Some entries share one result that the patent states for a list of compounds.

Columns and labels:
[1] = Drug release kinetics of thermogel at 37° C. (cassette MWCO 20,000, first-order model); assay type: physicochemical
Experimental: The drug release kinetics of the composition at 37° C. was evaluated. Data is shown below in Table 1-3. […] Each cassette (MWCO 20,000) contained 0.3 mL of Triogel (n=3). […] The profile of the release kinetics was fit into a first-order model (Prism ver 5.0), as illustrated in FIG. 2.
The release kinetics of 1-drug thermogels (37° C.) were analyzed. Separately, compositions having 6 mg, 6 mg, and 3 mg of PTX, 17-AAG, and RAPA mixed with 60, 60, and 30 mg of polymers, respectively, in 1.0 mL of water were evaluated. Each cassette (MWCO 20,000) contained 0.3 mL of Thermogel (n=3). Profile of release kinetics was fit into a first-order model (Prism ver 5.0).

[2] = tested on: ES-2-luc human ovarian cancer cells; test: In vitro cytotoxicity in ES-2-luc cells; conditions: drug(s) dissolved in a mixture of DMSO and medium
[3] = Initial gel formation experiments (stable thermogel with PLGA-PEG-PLGA); assay type: physicochemical; conditions: for stable thermogel formation / gel integrity (text): warming the 4° C. solution with PLGA-PEG-PLGA to room temperature / 37° C.
[4] = Rehydration time, gelation time and physical observation of lyophilized sample and gel; assay type: physicochemical; conditions: single, two and three drug compositions
Experimental: (§1) The drug delivery system containing a combination of three drugs can be prepared as follows. Paclitaxel (PTX; 6 mg), 17-AAG (6 mg), and rapamycin (RAPA; 3 mg) were combined with 1.5 mL of tent-Butanol (TBA) to obtain a clear solution at 60° C. Separately, cold water was added to PLGA1.5k-PEG1k-PLGA1.5k and the mixture was incubated at refrigeration temperature (4° C.) for 2-3 days to obtain 100 mg/mL of polymer solution. The polymer solution (1.5 mL) was rapidly added to 1.5 mL of drug/TBA mixture (50% TBA). The mixture was rapidly vortexed and warmed to 60° C. for less than one minute to prevent phase separation. The mixture was rapidly frozen with ethanol/dry ice (−72° C.) for 1 hour and lyophilized for 24 hours (below 0.8 bar at −45° C.).
(§2) Samples were diluted with cold water and kept at 4° C. Liquefied samples were passed through about […] (e.g., clear solution (x)) to about 0.2 μm (e.g., clear solution (y)) of a regenerated cellulose membrane filter (RC filter) at 4° C. and concentrations were quantified using RP-HPLC.
In general, an elegant lyophilized cake can improve rehydration time and solubility of the lyophilized cake in aqueous solution.

[5] = Drug content incorporated in thermogel quantified by RP-HPLC; assay type: physicochemical; conditions: single, two and three drug compositions; initial level 3.0 mg/mL
Experimental: as §1, §2

In the case of `CC(=O)O[C@H]1C(=O)[C@@]2(C)[C@H]([C@H](OC(=O)c3ccccc3)[C@]3(O)C[C@H](OC(=O)[C@H](O)[C@@H](NC(=O)c4ccccc4)c4ccccc4)C(C)=C1C3(C)C)[C@]1(OC(C)=O)CO[C@@H]1C[C@@H]2O` [PTX, paclitaxel], the “drug retained in thermogel” value ([1]; for approximately 30 hours, single drug thermogels) is reported as “More than 50%” and the IC50 [2] is reported as 124 ± 25.2 nM.

With `CO[C@H]1C[C@@H]2CC[C@@H](C)[C@@](O)(O2)C(=O)C(=O)N2CCCC[C@H]2C(=O)O[C@H]([C@H](C)C[C@@H]2CC[C@@H](O)[C@H](OC)C2)CC(=O)[C@H](C)/C=C(\C)[C@@H](O)[C@@H](OC)C(=O)[C@H](C)C[C@H](C)/C=C/C=C/C=C/1C` [RAPA, rapamycin] the “Thermogel Formation” value ([3]; drug(s) with PLGA-PEG-PLGA polymer, about 1 mg drug per 10 mg polymer) was “No”, the “stable thermogel formation / gel integrity (text)” value [3] was “lacked a gel-like integrity” and the “stable thermogel formation / gel integrity (text)” value ([3]; listed as rapamycin) was “the gel was unable to be formed; also recorded: did not form a stable gel”. The “Physical obs. of gel” value [4] was “Liquid-”, the “k: release kinetic constant” value ([1]; release from Triogel (6 mg/6 mg/3 mg PTX/17-AAG/RAPA, 150 mg polymer, 1 mL water), 37° C., n = 3) was 0.0900 ± 0.023 h⁻¹ and the “k (release kinetic constant)” value ([1]; release from two drug thermogel PTX/RAPA (6 mg/3 mg in 90 mg polymer, 1 mL water), 37° C.) was 0.1163 ± 0.0490 h⁻¹. The “k (release kinetic constant)” value ([1]; release from two drug thermogel RAPA/17-AAG (3 mg/6 mg in 90 mg polymer, 1 mL water), 37° C.) was 0.1093 ± 0.0232 h⁻¹, the “k (release kinetic constant)” value ([1]; single drug compositions, 37° C., n = 3) was 1.351 ± 0.6168 h⁻¹ and the “drug of the sample released” value ([1]; within 0.5 hours, single drug composition) was “More than 50%”. For the same compound, the “Final level of drug, RAPA” value [5] was 1.6 ± 0.2 mg/mL.
